Results on 21 molecules are retold here after patent US20200024357A1 (published 2020).

This experiment concerns the target cynomolgus (Macaca fascicularis) CD39 expressed on CHO cells (cynomolgus (Macaca fascicularis)). The experiment in a line: flow cytometry on CHO cells expressing cynomolgus CD39. For orientation: A flow cytometer gives signals particle by particle.

These are yes or no findings as the source states them, for the method shown. Some results given as binding are weak or reduced against the parent protein; the word gives no strength.

B1: mAb1 H0L0 (antibody, human IgG1, V domains shown)
VH: QVQLVQSGAEVKKPGASVKVSCKASGYTFTDYNMHWVRQAPGQRLEWMGYIVPLNGGSTFNQKFKGRVTITRDTSASTAYMELSSLRSEDTAVYYCARGGTRFAYWGQGTLVTVSS
VL: DIVMTQSPDSLAVSLGERATINCRASESVDNFGVSFMYWYQQKPGQPPKLLIYGASNQGSGVPDRFSGSGSGTDFTLTISSLQAEDVAVYYCQQTKEVPYTFGGGTKVEIK
Consider B1, for which the binding result is “binds”.

B2: mAb11 H2*L1 (antibody, human IgG1, V domains shown)
VH: QVQLVQSGAEVKKPGASVKVSCKASGYTFTDYNMHWVRQAPGQRLEWMGYIVPLNGGSTFSQKFKGRATITVDTSASTAYMELSSLRSEDTAVYYCARGGTRFAYWGQGTLVTVSS
VL: DIVMTQSPDSLAVSLGERATINCRASESVDNFGVSFMYWFQQKPGQPPKLLIYGASNQGSGVPDRFSGSGSGTDFTLTISSLQAEDVAVYYCQQTKEVPYTFGGGTKVEIK
In the case of B2, the binding result is reported as “binds”.

B3: mAb5 H1L1 (antibody, human IgG1, V domains shown)
VH: QVQLVQSGAEVKKPGASVKVSCKASGYTFTDYNMHWVRQAPGQRLEWMGYIVPLNGGSTFNQKFKGRVTITVDTSASTAYMELSSLRSEDTAVYYCARGGTRFAYWGQGTLVTVS
VL: DIVMTQSPDSLAVSLGERATINCRASESVDNFGVSFMYWFQQKPGQPPKLLIYGASNQGSGVPDRFSGSGSGTDFTLTISSLQAEDVAVYYCQQTKEVPYTFGGGTKVEIK
Turning to B3, the binding result is “binds”.

B4: mAb9 H2L1* (antibody, human IgG1, V domains shown)
VH: QVQLVQSGAEVKKPGASVKVSCKASGYTFTDYNMHWVRQAPGQRLEWMGYIVPLNGGSTFNQKFKGRATITVDTSASTAYMELSSLRSEDTAVYYCARGGTRFAYWGQGTLVTVSS
VL: DIVMTQSPDSLAVSLGERATINCKASESVDNFGVSFMYWFQQKPGQPPKLLIYGASNQGSGVPDRFSGSGSGTDFTLTISSLQAEDVAVYYCQQTKEVPYTFGGGTKVEIK
Consider B4, for which the binding result is “binds”.

B5: mAb15 H3L1* (antibody, human IgG1, V domains shown)
VH: QVQLVQSGAEVKKPGASVKVSCKASGYTFTDYNMHWVRQAPGQRLEWIGYIVPLNGGSTFNQKFKGRATITVDTSASTAYMELSSLRSEDTAVYYCARGGTRFAYWGQGTLVTVSS
VL: DIVMTQSPDSLAVSLGERATINCKASESVDNFGVSFMYWFQQKPGQPPKLLIYGASNQGSGVPDRFSGSGSGTDFTLTISSLQAEDVAVYYCQQTKEVPYTFGGGTKVEIK
As for B5, the binding entry is “binds”.

B6: mAb18 H3*L1* (antibody, human IgG1, V domains shown)
VH: QVQLVQSGAEVKKPGASVKVSCKASGYTFTDYNMHWVRQAPGQRLEWIGYIVPLNGGSTFSQKFQGRATITVDTSASTAYMELSSLRSEDTAVYYCARGGTRFAYWGQGTLVTVSS
VL: DIVMTQSPDSLAVSLGERATINCKASESVDNFGVSFMYWFQQKPGQPPKLLIYGASNQGSGVPDRFSGSGSGTDFTLTISSLQAEDVAVYYCQQTKEVPYTFGGGTKVEIK
Take B6: the binding entry was “binds”.

B7: mAb16 H3*L0 (antibody, human IgG1, V domains shown)
VH: QVQLVQSGAEVKKPGASVKVSCKASGYTFTDYNMHWVRQAPGQRLEWIGYIVPLNGGSTFSQKFQGRATITVDTSASTAYMELSSLRSEDTAVYYCARGGTRFAYWGQGTLVTVSS
VL: DIVMTQSPDSLAVSLGERATINCRASESVDNFGVSFMYWYQQKPGQPPKLLIYGASNQGSGVPDRFSGSGSGTDFTLTISSLQAEDVAVYYCQQTKEVPYTFGGGTKVEIK
As to B7, the binding entry was “binds”.

B8: mAb21 H4L1* (antibody, human IgG1, kappa, V domains shown)
VH: QVQLVQSGAEVKKPGASVKVSCKASGYTFTDYNMHWVRQAPGQRLEWIGYIVPLNGGSTFNQKFKGRATITVDTSARTAYMELSSLRSEDTAVYYCARGGTRFAYWGQGTLVTVSS
VL: DIVMTQSPDSLAVSLGERATINCKASESVDNFGVSFMYWFQQKPGQPPKLLIYGASNQGSGVPDRFSGSGSGTDFTLTISSLQAEDVAVYYCQQTKEVPYTFGGGTKVEIKR
Consider B8, for which the binding entry is on record as “binds”.

B9: mAb2 H0L1 (antibody, human IgG1, V domains shown)
VH: QVQLVQSGAEVKKPGASVKVSCKASGYTFTDYNMHWVRQAPGQRLEWMGYIVPLNGGSTFNQKFKGRVTITRDTSASTAYMELSSLRSEDTAVYYCARGGTRFAYWGQGTLVTVSS
VL: DIVMTQSPDSLAVSLGERATINCRASESVDNFGVSFMYWFQQKPGQPPKLLIYGASNQGSGVPDRFSGSGSGTDFTLTISSLQAEDVAVYYCQQTKEVPYTFGGGTKVEIK
B9: the binding result is reported as “binds”.

B10: mAb20 H4L1 (antibody, human IgG1, kappa, V domains shown)
VH: QVQLVQSGAEVKKPGASVKVSCKASGYTFTDYNMHWVRQAPGQRLEWIGYIVPLNGGSTFNQKFKGRATITVDTSARTAYMELSSLRSEDTAVYYCARGGTRFAYWGQGTLVTVSS
VL: DIVMTQSPDSLAVSLGERATINCRASESVDNFGVSFMYWFQQKPGQPPKLLIYGASNQGSGVPDRFSGSGSGTDFTLTISSLQAEDVAVYYCQQTKEVPYTFGGGTKVEIKR
notes: The full heavy chain carries L234A/L235E/G237A/A330S/P331S
For B10, the binding entry is given as “binds”.

B11: mAb10 H2*L0 (antibody, human IgG1, V domains shown)
VH: QVQLVQSGAEVKKPGASVKVSCKASGYTFTDYNMHWVRQAPGQRLEWMGYIVPLNGGSTFSQKFKGRATITVDTSASTAYMELSSLRSEDTAVYYCARGGTRFAYWGQGTLVTVSS
VL: DIVMTQSPDSLAVSLGERATINCRASESVDNFGVSFMYWYQQKPGQPPKLLIYGASNQGSGVPDRFSGSGSGTDFTLTISSLQAEDVAVYYCQQTKEVPYTFGGGTKVEIK
With B11, the binding result is “binds”.

B12: mAb8 H2L1 (antibody, human IgG1, V domains shown)
VH: QVQLVQSGAEVKKPGASVKVSCKASGYTFTDYNMHWVRQAPGQRLEWMGYIVPLNGGSTFNQKFKGRATITVDTSASTAYMELSSLRSEDTAVYYCARGGTRFAYWGQGTLVTVSS
VL: DIVMTQSPDSLAVSLGERATINCRASESVDNFGVSFMYWFQQKPGQPPKLLIYGASNQGSGVPDRFSGSGSGTDFTLTISSLQAEDVAVYYCQQTKEVPYTFGGGTKVEIK
Turning to B12, the binding result is listed as “binds”.

B13: mAb17 H3*L1 (antibody, human IgG1, V domains shown)
VH: QVQLVQSGAEVKKPGASVKVSCKASGYTFTDYNMHWVRQAPGQRLEWIGYIVPLNGGSTFSQKFQGRATITVDTSASTAYMELSSLRSEDTAVYYCARGGTRFAYWGQGTLVTVSS
VL: DIVMTQSPDSLAVSLGERATINCRASESVDNFGVSFMYWFQQKPGQPPKLLIYGASNQGSGVPDRFSGSGSGTDFTLTISSLQAEDVAVYYCQQTKEVPYTFGGGTKVEIK
Consider B13, for which the binding result is on record as “binds”.

B14: mAb19 H4L0 (antibody, human IgG1, V domains shown)
VH: QVQLVQSGAEVKKPGASVKVSCKASGYTFTDYNMHWVRQAPGQRLEWIGYIVPLNGGSTFNQKFKGRATITVDTSARTAYMELSSLRSEDTAVYYCARGGTRFAYWGQGTLVTVSS
VL: DIVMTQSPDSLAVSLGERATINCRASESVDNFGVSFMYWYQQKPGQPPKLLIYGASNQGSGVPDRFSGSGSGTDFTLTISSLQAEDVAVYYCQQTKEVPYTFGGGTKVEIK
Consider B14, for which the binding entry is recorded as “binds”.

B15: mAb7 H2L0 (antibody, human IgG1, V domains shown)
VH: QVQLVQSGAEVKKPGASVKVSCKASGYTFTDYNMHWVRQAPGQRLEWMGYIVPLNGGSTFNQKFKGRATITVDTSASTAYMELSSLRSEDTAVYYCARGGTRFAYWGQGTLVTVSS
VL: DIVMTQSPDSLAVSLGERATINCRASESVDNFGVSFMYWYQQKPGQPPKLLIYGASNQGSGVPDRFSGSGSGTDFTLTISSLQAEDVAVYYCQQTKEVPYTFGGGTKVEIK
As for B15, the binding result is recorded as “binds”.

B16: mAb3 H0L1* (antibody, human IgG1, V domains shown)
VH: QVQLVQSGAEVKKPGASVKVSCKASGYTFTDYNMHWVRQAPGQRLEWMGYIVPLNGGSTFNQKFKGRVTITRDTSASTAYMELSSLRSEDTAVYYCARGGTRFAYWGQGTLVTVSS
VL: DIVMTQSPDSLAVSLGERATINCKASESVDNFGVSFMYWFQQKPGQPPKLLIYGASNQGSGVPDRFSGSGSGTDFTLTISSLQAEDVAVYYCQQTKEVPYTFGGGTKVEIK
On to B16, for which the binding result is on record as “binds”.

B17: mAb4 H1L0 (antibody, human IgG1, V domains shown)
VH: QVQLVQSGAEVKKPGASVKVSCKASGYTFTDYNMHWVRQAPGQRLEWMGYIVPLNGGSTFNQKFKGRVTITVDTSASTAYMELSSLRSEDTAVYYCARGGTRFAYWGQGTLVTVS
VL: DIVMTQSPDSLAVSLGERATINCRASESVDNFGVSFMYWYQQKPGQPPKLLIYGASNQGSGVPDRFSGSGSGTDFTLTISSLQAEDVAVYYCQQTKEVPYTFGGGTKVEIK
As to B17, the binding entry is recorded as “binds”.

B18: mAb14 H3L1 (antibody, human IgG1, V domains shown)
VH: QVQLVQSGAEVKKPGASVKVSCKASGYTFTDYNMHWVRQAPGQRLEWIGYIVPLNGGSTFNQKFKGRATITVDTSASTAYMELSSLRSEDTAVYYCARGGTRFAYWGQGTLVTVSS
VL: DIVMTQSPDSLAVSLGERATINCRASESVDNFGVSFMYWFQQKPGQPPKLLIYGASNQGSGVPDRFSGSGSGTDFTLTISSLQAEDVAVYYCQQTKEVPYTFGGGTKVEIK
On to B18, for which the binding entry is given as “binds”.

B19: mAb12 H2*L1* (antibody, human IgG1, V domains shown)
VH: QVQLVQSGAEVKKPGASVKVSCKASGYTFTDYNMHWVRQAPGQRLEWMGYIVPLNGGSTFSQKFKGRATITVDTSASTAYMELSSLRSEDTAVYYCARGGTRFAYWGQGTLVTVSS
VL: DIVMTQSPDSLAVSLGERATINCKASESVDNFGVSFMYWFQQKPGQPPKLLIYGASNQGSGVPDRFSGSGSGTDFTLTISSLQAEDVAVYYCQQTKEVPYTFGGGTKVEIK
As to B19, the binding entry is reported as “binds”.

B20: mAb13 H3L0 (antibody, human IgG1, V domains shown)
VH: QVQLVQSGAEVKKPGASVKVSCKASGYTFTDYNMHWVRQAPGQRLEWIGYIVPLNGGSTFNQKFKGRATITVDTSASTAYMELSSLRSEDTAVYYCARGGTRFAYWGQGTLVTVSS
VL: DIVMTQSPDSLAVSLGERATINCRASESVDNFGVSFMYWYQQKPGQPPKLLIYGASNQGSGVPDRFSGSGSGTDFTLTISSLQAEDVAVYYCQQTKEVPYTFGGGTKVEIK
Take B20: the binding result is “binds”.

B21: mAb6 H1L1* (antibody, human IgG1, V domains shown)
VH: QVQLVQSGAEVKKPGASVKVSCKASGYTFTDYNMHWVRQAPGQRLEWMGYIVPLNGGSTFNQKFKGRVTITVDTSASTAYMELSSLRSEDTAVYYCARGGTRFAYWGQGTLVTVS
VL: DIVMTQSPDSLAVSLGERATINCKASESVDNFGVSFMYWFQQKPGQPPKLLIYGASNQGSGVPDRFSGSGSGTDFTLTISSLQAEDVAVYYCQQTKEVPYTFGGGTKVEIK
Take B21: the binding entry was “binds”.
